Assay results: the supplement of paper PMC10849652
The other results are listed elsewhere or left out.

Sequences of proteins named here, by UniProt entry; tags and fusion partners are left off. A change or cut given only in a name is not applied to a line headed by its entry.
UniProt Q96BJ3: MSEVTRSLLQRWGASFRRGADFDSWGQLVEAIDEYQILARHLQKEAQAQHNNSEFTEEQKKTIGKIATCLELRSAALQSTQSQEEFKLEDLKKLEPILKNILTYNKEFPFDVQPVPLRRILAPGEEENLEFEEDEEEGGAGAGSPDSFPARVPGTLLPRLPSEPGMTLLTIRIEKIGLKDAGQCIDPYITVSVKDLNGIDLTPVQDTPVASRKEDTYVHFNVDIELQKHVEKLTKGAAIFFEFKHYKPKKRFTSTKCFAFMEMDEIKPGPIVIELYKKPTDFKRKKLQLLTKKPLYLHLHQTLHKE
UniProt Q9ULX6: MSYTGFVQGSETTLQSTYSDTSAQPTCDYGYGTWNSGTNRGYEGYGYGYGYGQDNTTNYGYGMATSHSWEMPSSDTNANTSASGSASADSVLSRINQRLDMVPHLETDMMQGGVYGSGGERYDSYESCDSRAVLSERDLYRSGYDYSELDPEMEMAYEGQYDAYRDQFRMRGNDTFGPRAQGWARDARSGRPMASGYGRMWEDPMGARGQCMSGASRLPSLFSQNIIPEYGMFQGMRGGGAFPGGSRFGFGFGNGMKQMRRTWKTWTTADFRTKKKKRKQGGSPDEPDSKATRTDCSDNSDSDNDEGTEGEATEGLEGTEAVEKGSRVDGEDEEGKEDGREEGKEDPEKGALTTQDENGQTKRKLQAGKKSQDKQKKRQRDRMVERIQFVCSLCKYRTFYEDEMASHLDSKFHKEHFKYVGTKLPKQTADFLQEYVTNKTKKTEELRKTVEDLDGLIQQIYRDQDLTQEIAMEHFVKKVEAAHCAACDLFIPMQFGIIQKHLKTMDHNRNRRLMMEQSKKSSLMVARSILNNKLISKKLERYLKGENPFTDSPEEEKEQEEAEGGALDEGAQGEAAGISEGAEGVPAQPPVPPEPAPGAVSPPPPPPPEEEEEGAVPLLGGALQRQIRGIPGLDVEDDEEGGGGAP
UniProt O60488: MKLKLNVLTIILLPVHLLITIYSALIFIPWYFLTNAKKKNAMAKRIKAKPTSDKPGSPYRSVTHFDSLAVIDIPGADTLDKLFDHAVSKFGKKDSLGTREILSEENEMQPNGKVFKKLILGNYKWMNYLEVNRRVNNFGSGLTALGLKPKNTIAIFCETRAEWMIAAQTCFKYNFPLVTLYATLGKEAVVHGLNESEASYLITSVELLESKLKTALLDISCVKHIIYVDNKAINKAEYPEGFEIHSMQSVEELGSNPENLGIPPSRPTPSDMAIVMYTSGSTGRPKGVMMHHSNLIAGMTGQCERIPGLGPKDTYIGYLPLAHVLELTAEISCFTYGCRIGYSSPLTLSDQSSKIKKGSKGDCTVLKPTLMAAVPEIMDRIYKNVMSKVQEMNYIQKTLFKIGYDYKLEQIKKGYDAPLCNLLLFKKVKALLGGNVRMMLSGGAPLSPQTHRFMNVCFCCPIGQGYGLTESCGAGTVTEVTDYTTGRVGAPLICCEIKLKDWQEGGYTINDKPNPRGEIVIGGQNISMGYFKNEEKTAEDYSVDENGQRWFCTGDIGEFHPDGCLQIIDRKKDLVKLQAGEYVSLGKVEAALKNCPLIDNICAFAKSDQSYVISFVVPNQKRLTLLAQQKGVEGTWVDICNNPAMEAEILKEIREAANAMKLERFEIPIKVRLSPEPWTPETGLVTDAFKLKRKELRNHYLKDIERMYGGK
UniProt Q6ULP2: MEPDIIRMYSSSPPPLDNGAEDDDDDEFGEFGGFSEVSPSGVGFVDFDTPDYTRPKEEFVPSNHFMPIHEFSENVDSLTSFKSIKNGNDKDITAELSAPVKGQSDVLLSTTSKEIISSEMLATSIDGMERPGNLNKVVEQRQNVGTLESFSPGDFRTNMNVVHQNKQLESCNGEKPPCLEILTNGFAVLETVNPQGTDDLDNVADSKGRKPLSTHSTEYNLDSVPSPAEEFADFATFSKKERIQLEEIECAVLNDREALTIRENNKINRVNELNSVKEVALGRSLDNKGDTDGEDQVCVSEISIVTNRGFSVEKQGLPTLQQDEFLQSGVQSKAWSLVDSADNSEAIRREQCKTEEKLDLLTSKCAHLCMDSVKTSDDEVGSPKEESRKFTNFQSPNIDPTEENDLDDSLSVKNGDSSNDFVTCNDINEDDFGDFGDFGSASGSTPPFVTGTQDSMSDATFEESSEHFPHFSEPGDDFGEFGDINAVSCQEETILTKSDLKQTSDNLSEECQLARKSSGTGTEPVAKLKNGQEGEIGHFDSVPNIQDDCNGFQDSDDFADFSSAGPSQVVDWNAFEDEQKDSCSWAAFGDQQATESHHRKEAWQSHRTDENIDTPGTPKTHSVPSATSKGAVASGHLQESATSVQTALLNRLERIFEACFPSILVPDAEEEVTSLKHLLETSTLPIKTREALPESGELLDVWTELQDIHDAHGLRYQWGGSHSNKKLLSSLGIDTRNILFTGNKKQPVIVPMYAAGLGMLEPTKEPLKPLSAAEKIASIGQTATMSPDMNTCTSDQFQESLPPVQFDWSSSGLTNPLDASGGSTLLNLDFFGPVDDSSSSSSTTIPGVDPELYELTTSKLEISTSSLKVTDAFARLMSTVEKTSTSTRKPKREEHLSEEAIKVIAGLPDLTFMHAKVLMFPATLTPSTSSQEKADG
UniProt Q53H12: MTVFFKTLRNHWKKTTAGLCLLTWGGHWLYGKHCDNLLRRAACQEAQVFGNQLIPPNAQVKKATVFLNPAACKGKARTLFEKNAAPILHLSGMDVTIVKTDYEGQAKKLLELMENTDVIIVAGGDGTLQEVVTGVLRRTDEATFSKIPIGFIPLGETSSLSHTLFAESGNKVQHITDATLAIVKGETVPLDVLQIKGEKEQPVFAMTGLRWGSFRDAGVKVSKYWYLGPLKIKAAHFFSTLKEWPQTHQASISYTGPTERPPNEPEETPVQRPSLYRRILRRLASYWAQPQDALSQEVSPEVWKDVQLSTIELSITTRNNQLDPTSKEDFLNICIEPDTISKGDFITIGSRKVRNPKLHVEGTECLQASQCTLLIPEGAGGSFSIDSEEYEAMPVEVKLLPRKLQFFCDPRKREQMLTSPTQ
UniProt P24666: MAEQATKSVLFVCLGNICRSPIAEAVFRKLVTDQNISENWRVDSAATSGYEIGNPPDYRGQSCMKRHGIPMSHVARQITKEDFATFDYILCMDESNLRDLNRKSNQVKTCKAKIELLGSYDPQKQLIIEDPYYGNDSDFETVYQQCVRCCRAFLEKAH
UniProt P11766: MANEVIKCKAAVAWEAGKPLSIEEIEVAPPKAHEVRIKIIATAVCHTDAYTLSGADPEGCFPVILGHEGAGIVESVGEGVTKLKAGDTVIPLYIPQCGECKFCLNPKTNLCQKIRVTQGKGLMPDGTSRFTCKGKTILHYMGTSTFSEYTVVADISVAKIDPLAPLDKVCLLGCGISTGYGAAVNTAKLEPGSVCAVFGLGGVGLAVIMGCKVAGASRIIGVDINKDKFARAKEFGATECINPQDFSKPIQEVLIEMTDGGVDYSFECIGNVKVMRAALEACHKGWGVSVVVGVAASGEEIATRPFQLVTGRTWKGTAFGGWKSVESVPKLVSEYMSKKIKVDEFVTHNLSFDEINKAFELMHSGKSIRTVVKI
UniProt Q9BQI0: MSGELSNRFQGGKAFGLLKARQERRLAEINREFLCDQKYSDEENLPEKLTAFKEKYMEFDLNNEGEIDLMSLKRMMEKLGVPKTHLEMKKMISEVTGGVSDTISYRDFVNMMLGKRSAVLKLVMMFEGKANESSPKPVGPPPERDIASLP
UniProt P23526: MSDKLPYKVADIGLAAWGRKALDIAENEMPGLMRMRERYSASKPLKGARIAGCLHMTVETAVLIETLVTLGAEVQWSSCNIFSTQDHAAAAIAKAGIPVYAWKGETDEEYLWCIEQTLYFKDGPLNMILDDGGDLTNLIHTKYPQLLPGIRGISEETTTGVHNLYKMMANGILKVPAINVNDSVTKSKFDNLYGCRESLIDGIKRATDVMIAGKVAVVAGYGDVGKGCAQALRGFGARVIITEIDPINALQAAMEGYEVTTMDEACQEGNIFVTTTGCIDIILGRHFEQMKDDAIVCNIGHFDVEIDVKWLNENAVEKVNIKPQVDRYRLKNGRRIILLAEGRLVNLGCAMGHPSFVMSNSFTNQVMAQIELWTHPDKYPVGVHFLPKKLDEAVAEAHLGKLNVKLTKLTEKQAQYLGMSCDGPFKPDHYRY
UniProt P52594: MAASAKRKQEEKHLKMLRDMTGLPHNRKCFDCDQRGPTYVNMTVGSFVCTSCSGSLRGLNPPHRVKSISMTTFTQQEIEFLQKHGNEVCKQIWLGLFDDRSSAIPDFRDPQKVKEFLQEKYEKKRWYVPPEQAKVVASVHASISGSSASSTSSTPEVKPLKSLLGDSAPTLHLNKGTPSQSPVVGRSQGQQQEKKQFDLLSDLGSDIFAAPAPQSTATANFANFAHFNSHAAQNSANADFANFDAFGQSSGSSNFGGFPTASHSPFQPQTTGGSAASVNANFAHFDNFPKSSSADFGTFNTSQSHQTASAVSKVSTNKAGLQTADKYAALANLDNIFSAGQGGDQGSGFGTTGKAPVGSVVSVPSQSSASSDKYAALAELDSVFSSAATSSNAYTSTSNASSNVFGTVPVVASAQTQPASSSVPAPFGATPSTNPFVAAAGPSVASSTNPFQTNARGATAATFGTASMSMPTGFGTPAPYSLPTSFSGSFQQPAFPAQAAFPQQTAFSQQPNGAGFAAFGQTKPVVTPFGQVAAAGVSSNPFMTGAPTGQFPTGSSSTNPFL
UniProt P52895: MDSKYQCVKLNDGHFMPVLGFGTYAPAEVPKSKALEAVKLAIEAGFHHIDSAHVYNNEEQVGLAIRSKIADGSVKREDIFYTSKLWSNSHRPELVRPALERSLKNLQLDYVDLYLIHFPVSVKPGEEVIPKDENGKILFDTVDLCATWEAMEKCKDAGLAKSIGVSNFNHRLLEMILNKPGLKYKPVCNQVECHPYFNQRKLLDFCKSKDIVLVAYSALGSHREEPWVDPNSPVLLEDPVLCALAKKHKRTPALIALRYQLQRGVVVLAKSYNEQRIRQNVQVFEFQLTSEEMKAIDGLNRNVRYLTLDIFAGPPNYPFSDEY
UniProt Q6DHV7: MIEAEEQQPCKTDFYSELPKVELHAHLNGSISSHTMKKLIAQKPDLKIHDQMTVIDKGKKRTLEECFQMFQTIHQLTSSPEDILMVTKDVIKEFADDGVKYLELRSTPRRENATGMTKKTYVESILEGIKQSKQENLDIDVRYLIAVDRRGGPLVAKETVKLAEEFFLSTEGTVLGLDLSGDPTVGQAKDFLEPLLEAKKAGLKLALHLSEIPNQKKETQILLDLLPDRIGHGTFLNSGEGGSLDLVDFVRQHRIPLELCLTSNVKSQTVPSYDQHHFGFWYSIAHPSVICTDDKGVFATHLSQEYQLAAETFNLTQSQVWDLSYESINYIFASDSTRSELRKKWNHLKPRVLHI
UniProt Q92667: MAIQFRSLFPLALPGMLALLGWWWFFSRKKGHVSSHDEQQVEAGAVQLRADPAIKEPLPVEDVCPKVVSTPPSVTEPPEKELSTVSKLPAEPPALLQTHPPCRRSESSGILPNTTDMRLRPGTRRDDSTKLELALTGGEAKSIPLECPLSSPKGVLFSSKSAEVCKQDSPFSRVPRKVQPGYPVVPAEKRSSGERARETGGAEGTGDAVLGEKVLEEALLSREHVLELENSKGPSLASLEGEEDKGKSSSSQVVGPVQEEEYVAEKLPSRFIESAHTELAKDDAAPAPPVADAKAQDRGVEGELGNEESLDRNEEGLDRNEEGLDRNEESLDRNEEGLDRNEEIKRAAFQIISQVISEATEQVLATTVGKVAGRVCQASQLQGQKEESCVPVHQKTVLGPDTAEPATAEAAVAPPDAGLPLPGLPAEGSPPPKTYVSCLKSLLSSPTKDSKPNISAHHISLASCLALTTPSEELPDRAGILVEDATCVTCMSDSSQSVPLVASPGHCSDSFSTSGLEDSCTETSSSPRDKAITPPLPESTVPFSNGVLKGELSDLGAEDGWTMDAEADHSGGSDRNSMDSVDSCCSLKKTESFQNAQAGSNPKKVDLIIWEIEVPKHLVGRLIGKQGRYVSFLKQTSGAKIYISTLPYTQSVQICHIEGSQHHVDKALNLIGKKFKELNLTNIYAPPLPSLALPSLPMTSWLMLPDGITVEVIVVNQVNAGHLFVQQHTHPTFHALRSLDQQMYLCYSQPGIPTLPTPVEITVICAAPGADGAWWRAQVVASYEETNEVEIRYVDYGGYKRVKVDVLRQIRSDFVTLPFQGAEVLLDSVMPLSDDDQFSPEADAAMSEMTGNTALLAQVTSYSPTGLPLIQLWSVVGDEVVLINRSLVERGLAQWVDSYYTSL

Tests used:
Assay in all cases: log2 fold change, soluble protein after heating vs DMSO (PISA); higher = thermal stabilisation; K562 lysate, 10 uM; active = over 0.2 and 3.5 SD of the protein, either way, in both replicates (recomputed)
nilotinib = compound: Cc1cn(-c2cc(NC(=O)c3ccc(C)c(Nc4nccc(-c5cccnc5)n4)c3)cc(C(F)(F)F)c2)cn1 [nilotinib]
How it was run: (§1)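 Thermal stability, expressed as log-two fold change relative to solvent controls, is given from duplicates. Crude K562 extract in PBS pH 7.4 with 1 mM MgCl2, at 1 mg/mL protein, was treated with 10 μM compound for 30 min and heated in aliquots for 3 min across 48°C-58°C. After pooling, adjustment to 0.5% NP-40 at 4°C and centrifugation at 21,000xg for 90 min, supernatant protein was measured by TMTpro 16plex LC-MS/MS with channel sums equalised.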

[1] = compound: Cc1nc(Nc2n[nH]c3c2CN(C(=O)N[C@H](CN(C)C)c2ccccc2)C3(C)C)c2sccc2n1
How it was run: as §1

dasatinib = compound: Cc1nc(Nc2ncc(C(=O)Nc3c(C)cccc3Cl)s2)cc(N2CCN(CCO)CC2)n1 [dasatinib]
How it was run: as §1

[2] = compound: Cc1ncc(-c2ccnc(Nc3ccc(S(C)(=O)=O)cc3)n2)n1C(C)C
How it was run: as §1

[3] = compound: Cn1cc(-c2ccc3c(c2)CCN3C(=O)Cc2cccc(C(F)(F)F)c2)c2c(N)ncnc21
How it was run: as §1

quisinostat = compound: Cn1cc(CNCC2CCN(c3ncc(C(=O)NO)cn3)CC2)c2ccccc21 [quisinostat]
How it was run: as §1

tipifarnib = compound: Cn1cncc1[C@@](N)(c1ccc(Cl)cc1)c1ccc2c(c1)c(-c1cccc(Cl)c1)cc(=O)n2C [tipifarnib]
How it was run: as §1

[4] = compound: NC(=O)Nc1cc(-c2cccc(F)c2)sc1C(=O)N[C@H]1CCCNC1
How it was run: as §1

[5] = compound: NC(=O)c1cnc(N[C@@H]2CCCC[C@@H]2N)nc1Nc1cccc(-n2nccn2)c1
How it was run: as §1

[6] = compound: NC1(c2ccc(-c3nc4ccn5c(=O)[nH]nc5c4cc3-c3ccccc3)cc2)CCC1
How it was run: as §1

Measured: log2 fold change

AIDA (UniProt Q96BJ3)
inactive: nilotinib 0.042 | [1] -0.081 | dasatinib -0.088 | [2] -0.017 | [3] -0.066 | quisinostat -0.005 | tipifarnib -0.083 | [4] 0.001 | [5] 0.002 | [6] -0.017

AKAP8L (UniProt Q9ULX6)
active: nilotinib -0.267
inactive: [1] 0.022 | dasatinib -0.062 | [2] 0.016 | [3] 0.037 | quisinostat -0.024 | tipifarnib -0.011 | [4] 0.055 | [5] 0.002 | [6] 0.028

ACSL4 (UniProt O60488)
inactive: nilotinib -0.011 | [1] 0.008 | dasatinib 0.004 | [2] 0.018 | [3] 0.02 | quisinostat -0.018 | tipifarnib -0.051 | [4] 0.029 | [5] -0.032 | [6] -0.074

AFTPH isoform 9 (UniProt Q6ULP2)
inactive: nilotinib 0.086 | [1] 0.192 | dasatinib -0.018 | [2] -0.004 | [3] 0.088 | quisinostat 0.019 | tipifarnib -0.027 | [4] 0.029 | [5] 0.084 | [6] -0.016

AGK (UniProt Q53H12)
inactive: nilotinib -0.035 | [1] -0.022 | dasatinib -0.019 | [2] 0.016 | [3] 0.008 | quisinostat 0.143 | tipifarnib -0.011 | [4] 0.002 | [5] -0.008 | [6] -0.054

ACP1 isoform 2 (UniProt P24666)
inactive: nilotinib 0.003 | [1] -0.036 | dasatinib -0.078 | [2] -0.009 | [3] 0.033 | quisinostat -0.003 | tipifarnib 0.005 | [4] 0.004 | [5] 0.016 | [6] 0.023

ADH5 (UniProt P11766)
inactive: nilotinib 0.016 | [1] 0.022 | dasatinib 0.006 | [2] 0.02 | [3] -0.007 | quisinostat -0.065 | tipifarnib 0.02 | [4] -0.011 | [5] -0.025 | [6] 0.007

AIF1L (UniProt Q9BQI0)
inactive: nilotinib -0.263 | [1] -0.176 | dasatinib 0.118 | [2] 0.142 | [3] -0.058 | quisinostat -0.075 | tipifarnib 0.123 | [4] -0.112 | [5] -0.012 | [6] 0.016

AHCY (UniProt P23526)
inactive: nilotinib -0.004 | [1] -0.015 | dasatinib 0.005 | [2] -0.041 | [3] 0.015 | quisinostat 0.045 | tipifarnib 0.011 | [4] -0.024 | [5] -0.017 | [6] -0.004

AGFG1 isoform 4 (UniProt P52594)
inactive: nilotinib 0.005 | [1] 0.033 | dasatinib 0.048 | [2] 0.01 | [3] 0.012 | quisinostat 0.003 | tipifarnib -0.03 | [4] -0.007 | [5] 0.009 | [6] 0.003

ACTN1 isoform 3 (UniProt P12814)
inactive: nilotinib 0.019 | [1] -0.006 | dasatinib 0.04 | [2] 0.009 | [3] -0.02 | quisinostat 0.01 | tipifarnib 0.003 | [4] -0.01 | [5] -0.009 | [6] 0.009

AKR1C2 (UniProt P52895)
inactive: nilotinib 0.02 | [1] -0.031 | dasatinib -0.006 | [2] -0.009 | [3] -0.045 | quisinostat -0.043 | tipifarnib 0 | [4] 0.019 | [5] -0.039 | [6] -0.034

ADAL (UniProt Q6DHV7)
inactive: nilotinib -0.031 | [1] -0.015 | dasatinib -0.011 | [2] 0.058 | [3] -0.004 | quisinostat 0.026 | tipifarnib 0.002 | [4] 0.002 | [5] 0.024 | [6] 0.013

AKAP1 (UniProt Q92667)
inactive: nilotinib -0.006 | [1] -0.006 | dasatinib -0.066 | [2] 0.006 | [3] 0.118 | quisinostat -0.015 | tipifarnib 0.016 | [4] -0.01 | [5] 0.013 | [6] -0.002
